Assay results taken from paper PMC5834252, “Targeting scFv-Fc-scTRAIL fusion proteins to tumor cells” (Oncotarget, 2018).
Results are given in words; binding and its absence hold for the method and conditions named. For part of these data: Sequences can lack the tags named with a protein.

Sequences of proteins named here, by UniProt entry; tags and fusion partners are left off. Residues count along the entry.
UniProt P21860, residues 20-643: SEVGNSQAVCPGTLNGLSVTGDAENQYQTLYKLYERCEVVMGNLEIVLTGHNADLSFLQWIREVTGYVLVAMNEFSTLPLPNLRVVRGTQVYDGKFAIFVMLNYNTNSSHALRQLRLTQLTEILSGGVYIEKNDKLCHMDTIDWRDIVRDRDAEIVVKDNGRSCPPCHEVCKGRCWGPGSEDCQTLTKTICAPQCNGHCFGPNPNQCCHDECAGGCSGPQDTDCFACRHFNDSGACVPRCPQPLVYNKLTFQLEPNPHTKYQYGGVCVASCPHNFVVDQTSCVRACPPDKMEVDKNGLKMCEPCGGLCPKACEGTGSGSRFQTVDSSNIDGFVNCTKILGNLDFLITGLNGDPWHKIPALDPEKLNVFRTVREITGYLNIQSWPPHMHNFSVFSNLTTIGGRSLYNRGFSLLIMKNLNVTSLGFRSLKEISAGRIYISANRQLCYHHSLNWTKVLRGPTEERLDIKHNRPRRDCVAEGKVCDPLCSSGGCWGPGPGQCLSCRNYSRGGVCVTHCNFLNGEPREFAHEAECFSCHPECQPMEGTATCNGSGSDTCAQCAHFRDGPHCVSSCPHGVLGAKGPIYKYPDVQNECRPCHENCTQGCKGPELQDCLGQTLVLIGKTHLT

Assays:
[1] = target: T1, moDcTRAIL-R1 (Fc fusion protein) (mouse) (UniProt Q9ER63); test: ELISA; Fc fusion proteins of human and mouse TRAIL receptors coated (200 ng/well); 40 nM scTRAIL units; detected with anti-FLAG-HRP; relative OD450; both purified
T1 sequence: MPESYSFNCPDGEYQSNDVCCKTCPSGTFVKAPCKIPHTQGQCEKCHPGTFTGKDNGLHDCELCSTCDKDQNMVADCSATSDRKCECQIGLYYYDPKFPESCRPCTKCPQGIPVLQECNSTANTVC

HER2-Fc (human) = HER2-Fc (human) (UniProt P04626); test: ELISA; receptor-Fc fusion proteins or sEpCAM coated (300 ng/well); 20 nM protein (scTRAIL units); detected with anti-FLAG-HRP or anti-human IgG (Fc specific)-POD; relative OD450; both purified
HER3-Fc (human) = HER3-Fc (human) (UniProt P21860); test: as above

B1: Fc-scTRAIL (Fc fusion, human)
chain: GPQRVAAHITGTRGRSNTLSSPNSKNEKALGRKINSWESSRSGHSFLSNLHLRNGELVIHEKGFYYIYSQTYFRFQEEIKENTKNDKQMVQYIYKYTSYPDPILLMKSARNSCWSKDAEYGLYSIYQGGIFELKENDRIFVSVTNEHLIDMDHEASFFGAFLVGGGPQRVAAHITGTRGRSNTLSSPNSKNEKALGRKINSWESSRSGHSFLSNLHLRNGELVIHEKGFYYIYSQTYFRFQEEIKENTKNDKQMVQYIYKYTSYPDPILLMKSARNSCWSKDAEYGLYSIYQGGIFELKENDRIFVSVTNEHLIDMDHEASFFGAFLVGGGPQRVAAHITGTRGRSNTLSSPNSKNEKALGRKINSWESSRSGHSFLSNLHLRNGELVIHEKGFYYIYSQTYFRFQEEIKENTKNDKQMVQYIYKYTSYPDPILLMKSARNSCWSKDAEYGLYSIYQGGIFELKENDRIFVSVTNEHLIDMDHEASFFGAFLVG
notes: human TRAIL, first protomer of single-chain TRAIL (scTRAIL), amino acids 118-281; single glycine residue as linker between the TRAIL protomers; human TRAIL, second protomer of scTRAIL, amino acids 118-281; human TRAIL, third protomer of scTRAIL, amino acids 118-281; scTRAIL is fused to the C-terminus of the human gamma1 Fc; disulfide-linked dimer (hexavalent TRAIL); also called non-targeted …
In the case of B1, the binding [1] is reported as “no binding (tested: 40 nM scTRAIL units)”, the binding (HER2-Fc (human)) is reported as “no binding (tested: 20 nM protein (scTRAIL units))” and the binding (HER3-Fc (human)) is reported as “no binding (tested: 20 nM protein (scTRAIL units))”.
